PubChem BioAssay AID686937 – Drosophila RNAi Screening Center | 2013
In all, the deposit lists about 23,000 reagents; below is a random part of those that have a named target and a result. 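Reduced-secretion tags in replicate 1 do not always agree with the z-scores; no criterion for assigning the tags was given.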 A plus sign joins genes that one reagent is predicted to hit. Further read-outs or replicates are left out here. Not given: the amount of reagent.

- Assay: 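Genes in the fly needed for secretion of protein constitutively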 (primary screen)
- System: Drosophila S2 cells expressing secreted horseradish peroxidase
- Knock-down reagent: long dsRNA against Drosophila genes
- Duration: about 5.5 days (5 days dsRNA, then 12 h reporter induction)
- Challenge: reporter expression induced after 5 days of dsRNA, read 12 h later; inducer not stated
- Measurement: 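After 5 days of dsRNA and 12 h of reporter induction, medium peroxidase read by chemiluminescence and scored as per-plate z-score; higher values mean more reporter released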
- Scale: z-score: higher = more reporter secreted into medium

no.	target	DRSC id	z-score, replicate 1
1	rdgA (GeneID 31826)	DRSC17863	-0.1
2	rdgA (GeneID 31826)	DRSC18036	-0.1
3	rdgA (GeneID 31826)	DRSC18827	0.37
4	CG4882 (GeneID 37787)	DRSC04495	-0.11
5	Gs2 (GeneID 32087)	DRSC20250	0.5
6	mthl3 (GeneID 36961)	DRSC06997	0.12
7	sau (GeneID 33402)	DRSC00694	-0.22
8	TwdlH (GeneID 43208)	DRSC14735	0.53
9	Got1 (GeneID 36782)	DRSC07177	0.36
10	Vps11 (GeneID 317987)	DRSC11909	0.45
11	Vps11 (GeneID 317987)	DRSC21579	-0.34
12	Rab19 (GeneID 38930)	DRSC11260	-0.23
13	CG33125 (GeneID 318892)	DRSC00145	0.34
14	CG8892 (GeneID 33719)	DRSC03121	0.2
15	Sara (GeneID 44263)	DRSC04653	0.1
16	CG3515 (GeneID 33437)	DRSC00609	0.46
17	ng3 (GeneID 31299)	DRSC18804	0.38
18	Tnpo (GeneID 38721)	DRSC11309	-3.63
19	CG13585 (GeneID 37918)	DRSC04221	0.5
20	Mkp + CG34140	DRSC08585	0.18
21	CG8726 (GeneID 35758)	DRSC07250	0.25
22	CG17239 (GeneID 59224)	DRSC00492	0.2
23	CG1273 (GeneID 38522)	DRSC08291	0.27
24	cN-IIIB (GeneID 37875)	DRSC04359	0.42
25	Orai (GeneID 37040)	DRSC05684	0.3
26	Orai (GeneID 37040)	DRSC22061	0.45
27	CG11695 (GeneID 32106)	DRSC19416	0.39
28	CG13028 (GeneID 2768967)	DRSC09908	0.04
29	CG6638 (GeneID 38979)	DRSC10680	0.42
30	CG7083 (GeneID 38943)	DRSC11136	0.39
31	Elo68alpha (GeneID 317841)	DRSC22725	-0.21
32	Hpr1 (GeneID 40723)	DRSC12296	0.14
33	CG34353 (GeneID 5740590)	DRSC14493	0.5
34	CG34353 (GeneID 5740590)	DRSC14517	0.4
35	CG34353 (GeneID 5740590)	DRSC14563	0.45
36	CG34353 (GeneID 5740590)	DRSC15837	0.31
37	CG34353 (GeneID 5740590)	DRSC22429	-0.34

A stretch from the list above:
no.	target	DRSC id	z-score, replicate 1
8	TwdlH (GeneID 43208)	DRSC14735	0.53
9	Got1 (GeneID 36782)	DRSC07177	0.36
